Results deposited as PubChem BioAssay AID1259258 (Sanger Institute, 2017)

Assay: 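Kinase silencing that boosts cell killing by anchor cancer drugs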 (follow-up of hits)
Cell system: human SW48 colorectal cancer cells
Reagent: single siRNA against human genes
Challenge: anchor drug cetuximab 5 µg/ml, trametinib 10 nM or BYL719 1 µM, or DMSO vehicle alone; assay length not stated
Measurement: 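Synergy score per drug compares siRNA-plus-drug effect with each agent alone; viability, relative to non-targeting pool 2 and replicate-averaged, uses DMSO, cetuximab 5 µg/ml, trametinib 10 nM or BYL719 1 µM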
Scale: synergy score with trametinib and synergy score with BYL719 and synergy score with cetuximab: higher = stronger synergy, more killing than expected
Active means: 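Any one of the three anchor drugs giving a synergy value over 0.10 makes the siRNA a hit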
The deposit covers 160 reagents; this is a part drawn at random. Over the whole deposit, 40 (25%) were called active. 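Each row is one of four siRNAs per gene; a gene counts as confirmed only when several of its siRNAs show synergy.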 Entries without a mark were called inactive. Reagents against one gene are numbered here. Further read-outs or replicates are left out here. The record does not give: the amount of reagent, the time to read-out.

How did the screen score IRAK1 #1?
synergy score with trametinib: 0.421 (active); synergy score with BYL719: 0.0444; synergy score with cetuximab: 0.111

How did the screen score IRAK1 #2?
synergy score with trametinib: -0.183; synergy score with BYL719: -0.0824; synergy score with cetuximab: -0.157

With IRAK1 #3, what was measured?
synergy score with trametinib: 0.242 (active); synergy score with BYL719: 0.135; synergy score with cetuximab: 0.0447

With IRAK1 #4, what was measured?
synergy score with trametinib: 0.0946 (active); synergy score with BYL719: 0.221; synergy score with cetuximab: -0.274

For GUCY2D #1, how do the results read?
synergy score with trametinib: 0.0154; synergy score with BYL719: -0.0575; synergy score with cetuximab: -0.136

For GUCY2D #2, how do the results read?
synergy score with trametinib: 0.0296; synergy score with BYL719: 0.0311; synergy score with cetuximab: 0.0321

Which result is listed for GUCY2D #3?
synergy score with trametinib: 0.0705; synergy score with BYL719: -0.0264; synergy score with cetuximab: -0.186

How did the screen score GUCY2D #4?
synergy score with trametinib: -0.226; synergy score with BYL719: -0.317; synergy score with cetuximab: -0.274

What is on record for MARK3 #1?
synergy score with trametinib: -0.0888; synergy score with BYL719: -0.127; synergy score with cetuximab: -0.16

What is on record for MARK3 #2?
synergy score with trametinib: -0.161; synergy score with BYL719: -0.104; synergy score with cetuximab: 0.0344

For MARK3 #3, how do the results read?
synergy score with trametinib: -0.0478; synergy score with BYL719: -0.0813; synergy score with cetuximab: -0.0536

With MARK3 #4, how do the results read?
synergy score with trametinib: 0.116 (active); synergy score with BYL719: -0.0436; synergy score with cetuximab: -0.00399

For IRAK3 #1, what does the deposit list?
synergy score with trametinib: 0.0183; synergy score with BYL719: -0.0226; synergy score with cetuximab: -0.0383

How did the screen score IRAK3 #2?
synergy score with trametinib: -0.123; synergy score with BYL719: -0.114; synergy score with cetuximab: -0.228

For IRAK3 #3, what was measured?
synergy score with trametinib: -0.0953; synergy score with BYL719: -0.0607; synergy score with cetuximab: -0.238

With IRAK3 #4, how do the results read?
synergy score with trametinib: -0.053; synergy score with BYL719: -0.153; synergy score with cetuximab: -0.171

With CSNK2A2 #1, what does the deposit list?
synergy score with trametinib: -0.141; synergy score with BYL719: -0.258; synergy score with cetuximab: -0.227

Which result is listed for CSNK2A2 #2?
synergy score with trametinib: -0.127; synergy score with BYL719: -0.032; synergy score with cetuximab: -0.0931

For CSNK2A2 #3, how do the results read?
synergy score with trametinib: -0.0282; synergy score with BYL719: -0.105; synergy score with cetuximab: -0.0622

What is on record for CSNK2A2 #4?
synergy score with trametinib: 0.166 (active); synergy score with BYL719: -0.101; synergy score with cetuximab: 0.00704

Which result is listed for NLK #1?
synergy score with trametinib: -0.208; synergy score with BYL719: -0.186; synergy score with cetuximab: -0.203

With NLK #2, how do the results read?
synergy score with trametinib: 0.229 (active); synergy score with BYL719: -0.0189; synergy score with cetuximab: -0.028

Which result is listed for NLK #3?
synergy score with trametinib: -0.0771; synergy score with BYL719: -0.153; synergy score with cetuximab: 0.0847

What did the screen give for NLK #4?
synergy score with trametinib: -0.225; synergy score with BYL719: -0.0983; synergy score with cetuximab: -0.111

Only “synergy score with trametinib”, for 2 of the entries above:
GUCY2D #4	-0.226
MARK3 #1	-0.0888
